# Values from PubChem BioAssay AID1224830 (NIAID, 2016)
# Assay: 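Regulators of TLR4 signalling towards TNF-alpha in macrophage-like cells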 (primary screen)
# System: human THP-1 monocytic leukaemia cells, TNF dual-luciferase reporter clone, PMA-differentiated to macrophage-like cells
# Reagents: siRNA pool against human genes, 50 nM
# Duration: LPS for 4 h, given about 3 days after siRNA transfection
# Challenge: bacterial LPS (TLR4 ligand), 10 ng/ml
# Measured: 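Ratio of firefly to renilla light, scaled to the plate median and expressed as a robust z-score per replicate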
# Reading the numbers: TNF reporter robust z-score: higher = stronger TNF reporter response to LPS
# Hit rule: 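a well is active when its z-score exceeds 2.8 or falls below -1.5; control wells carry no call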
# In all, the deposit lists about 18,000 reagents; below is an unselected part. About 2,900 of all reagents (16%) were called active. 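Calls are made per well; low scores hint the gene aids the LPS response, high scores that it dampens it.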 Entries without a mark were called inactive. Repeated entries: four replicate wells of each siRNA pool.
gene,TNF reporter robust z-score
SPAG8,-0.5
SPAG8,-0.3
SPAG8,-0.48
SIKE1,1.42
SIKE1,0.93
SIKE1,1.41
SIKE1,1.2
GRAMD2B,-1.46
GRAMD2B,-0.57
GRAMD2B,0.95
GRAMD2B,-0.97
TIMELESS,0.28
TIMELESS,-0.17
TIMELESS,-0.19
TIMELESS,-0.09
ARL11,-0.74
ARL11,-0.97
ARL11,-0.84
ARL11,-0.82
BACH1,0.31
BACH1,0.53
BACH1,1.03
BACH1,0.95
FKBP11,1.09
FKBP11,0.97
FKBP11,1.57
FKBP11,2.83 (active)
LRRK2,0.23
LRRK2,1.17
LRRK2,0.4
LRRK2,0.94
JAK2,0.3
JAK2,0.41
JAK2,0
JAK2,0.54
C15orf32,0.59
C15orf32,0.49
C15orf32,0.28
C15orf32,0.1
PCGF2,-0.7
PCGF2,-0.91
PCGF2,-1.23
PCGF2,-0.23
FOSL1,-0.23
FOSL1,0.88
FOSL1,2.61
FOSL1,0.63
CDC25B,-1.03
CDC25B,-1.01
CDC25B,0.15
CDC25B,-1.02
KHDRBS2,0.3
KHDRBS2,1.39
KHDRBS2,1.11
KHDRBS2,1.91
B3GAT1,-0.58
B3GAT1,-0.32
B3GAT1,-0.84
B3GAT1,-0.06
TGS1,-0.42
TGS1,0.74
TGS1,0.13
TGS1,0.28
USP11,-0.25
USP11,-0.43
USP11,1.69
USP11,0.27

Continued (6 carried over from the part before).
gene,TNF reporter robust z-score
TGS1,0.13
TGS1,0.28
USP11,-0.25
USP11,-0.43
USP11,1.69
USP11,0.27
ALDH16A1,0.3
ALDH16A1,-0.31
ALDH16A1,1.49
ALDH16A1,0.21
PCSK1N,-1.15
PCSK1N,-1.02
PCSK1N,0
PCSK1N,-0.88
KLHL4,-0.55
KLHL4,-1.29
KLHL4,-0.26
KLHL4,0.36
ZMIZ2,-1.49
ZMIZ2,-1.57 (active)
ZMIZ2,-0.34
ZMIZ2,-0.37
ATP2B4,-1.95 (active)
ATP2B4,-0.1
ATP2B4,-0.25
ATP2B4,0.26
LRRC71,0.63
LRRC71,-0.32
LRRC71,-1.03
LRRC71,-0.82
INS,-0.17
INS,0.38
INS,-1.04
INS,-0.72
CENPI,-0.22
CENPI,-0.45
CENPI,0.49
CENPI,0.31
GAD2,-0.48
GAD2,-0.51
GAD2,-0.72
GAD2,-0.15
ESCO1,0.61
ESCO1,0.79
ESCO1,0.19
ESCO1,0.22
RMP64,0.3
RMP64,-0.71
RMP64,0.49
RMP64,0.57
